According to publication PMC4238974:
No constants are given. Whether binding was seen depends on the method and setting. Binding seen in cells or lysates may run through a third protein. Binding can be weak; no strength is given. Sequences can lack the tags named with a protein.

B1: HAM-5^Δ67-348-GFP (HAM-5 without the WD40 motifs) (protein, UniProt V5IN79)
chain: MSVPGHISRSRTGSIPASSKGRTAHMQDFAMAPTPSAVPRYFEPCAATASMFLYAQGSSIVCCHHDPANMLPPSPPISLEEQEKSQTVMHHNADHGVPIAIHADLSESDDHMSPLARLVQGQSEPDRYRPTSPTSSRSRSSVSITSSNSNTQGRNQYAPSAVSRGMTENTYISAGSSLRSGLPGQDHRYRRDRESLSTTSSVSMGSSNYRSRRPSRLRHEVPRSPDDAKVVDLFKFTKSRLQDMPYKTPQISDGVRLTNDDLRRQMLSTIFGWNKEIEDLIRDEMSRHPLGSTNRILLAKWLGDITTDIMAMGSENMTSSDWMLLALSGIGGQASQHKLGRAYVQRLLESGDVHAAATIMIGLGDHNDAIEIYVSHKKYMEALILTCLFFPSTWERQVQIVRKWGEWAVQHGQQQLAIRCFACTGHESTEPWTSPSAQQITFGSISATVNEVTSPPLSPPARNHGPQRSVAKNSALKLITTFGDNKSKFFSGHDDGRTPIAAGATPIVQSALSPGGADPTTAVLRNNRSQFNTPSSARPPNGGFGRHRLPSIGEATQDNRELLTAISKPVGDPYANIMSFEVSDHRTPGYDLPRAQTASPRVFKDAKAPPPPSPSPAAVAALMDGRQRRNGSRSRIPEGLDLSLPVHNDTRHDEPSSPEQSGNSISNAQYHWPSRRKGPGSVASSATSASATSSVRGYRSHVPGKSMDKYYHSLEAAGSSRNARGTSRDGHGNGRDTSRSRRNDGDLSRDRGRGSSRGYTPKGGKRSPKSPVPMSPEDLINLATPREDLEQLGHGKGRLIDFSDEQDQPSVAKKVTTRRETSRVRMASRGASRNGRSSSRARSSERRKPPALDLRGREASREGSRQRSPSSPVPMSGQAAHFYGSEDEEDYRRALEDREKFRQRHNRSVSKNGRGESITSPISGRGHDWGGRERSTSRQRSDKRSESHQTDRRQRIPAPMPTPAPMQLVTDSSGDLKVMMNERQLKKEQAQRELEERRRSLARRPSAPPILHPDELTPARLDTVMELPSTVFVPPRREDMPARSASVDPNSQGAGRSMYANRGPSIGLPATPKAMRLVLGSDASRNNVPVPAIPANFQQSSAASSNQASPDKVSQRQVELKQQEVEPPMKSPAMLLPSTVYTPPTSAFNRPFIQRSMSAPPQDLVPPQAGALSNLRGFHAQQPSVGGEPKPLMGRRPSHDAGRNDGPIPPPPPPPPAPPMLRELQHLAAPPPPPPAPLPHLAGAKPVVYGGSSGMIEIVMDDDQPQQPPQQPQQQPPPPPMLLPSTSYTPVNTAPIPKEIVVPILSPPAPSSRNGHARGRSSIDHSIGGRISRVTERMRSASRSRGAMRDNQAAPMIPAPYESVPMPGMSQSMNFHMRAAAAAAAQQQPGQSDFKTGLHHSEMI
B2: HAM-5^1-351-GFP (WD40 domain only) (domain or fragment, UniProt V5IN79 1-351)
chain: MSVPGHISRSRTGSIPASSKGRTAHMQDFAMAPTPSAVPRYFEPCAATASMFLYAQGSSIVCCHHDSLSIERRFARHTEEVQLLAVDNLSEMGTGRLVVSYDAGQTAIVWDLMTGDEVARFASYENLTCAAWMHNGNVAFGNIQGNVILFEPTTSEHISARTIDQIAITAIAPAADCRTFAIGYQNGSLLIATLQPRFTILHNLTTSRGPSPIVTLAWHASSSRQKSDMLAVQTHDGDLRVWSVSKQYNADDPAKVVRILKRTENYLTGPNWMGWSKNGRIIQYSEGETISWDVRTKHVTYDTIPTLEHARGLAVYGPGATLFTLGANNSVQQFDLNAPAMMVNNVQHPAN

Target: MEK-2-mCherry (Neurospora crassa)
Experiment: co-IP; lysate of 5 hr-old N. crassa germlings; anti-mCherry antibody covalently bound to Protein G Dynabeads, overnight at 4°C, washed three times with PBS; blot probed with anti-GFP antibodies

| Binder | binding |
| --- | --- |
| B1 | binds |
| B2 | no binding |
